Data on 7 molecules can be found in publication PMC11252128.

Assay [1] concerns the target T1, Cluc-OsERS2 (rice (Oryza sativa L.)) (UniProt Q0DKM0).
T1 sequence: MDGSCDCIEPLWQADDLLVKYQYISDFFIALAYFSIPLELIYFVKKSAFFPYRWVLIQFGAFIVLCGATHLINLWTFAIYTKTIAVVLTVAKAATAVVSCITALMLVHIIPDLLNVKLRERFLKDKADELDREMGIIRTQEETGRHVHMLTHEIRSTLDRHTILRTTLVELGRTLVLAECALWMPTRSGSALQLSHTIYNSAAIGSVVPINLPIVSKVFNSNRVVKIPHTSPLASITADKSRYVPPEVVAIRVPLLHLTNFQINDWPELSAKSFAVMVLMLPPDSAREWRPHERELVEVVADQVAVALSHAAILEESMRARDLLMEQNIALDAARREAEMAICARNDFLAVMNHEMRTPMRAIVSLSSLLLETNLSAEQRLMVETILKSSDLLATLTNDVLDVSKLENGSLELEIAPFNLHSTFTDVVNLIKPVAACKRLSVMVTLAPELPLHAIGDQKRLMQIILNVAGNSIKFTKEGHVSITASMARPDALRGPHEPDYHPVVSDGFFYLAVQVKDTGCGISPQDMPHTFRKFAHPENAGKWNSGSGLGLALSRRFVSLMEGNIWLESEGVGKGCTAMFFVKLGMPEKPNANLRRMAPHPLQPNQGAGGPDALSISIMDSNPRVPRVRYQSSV
Kind of assay: split reporter; luciferase complementation imaging (LCI), enhanced-interaction assay in N. benthamiana leaves: Cluc-receptor plus OsCTR2-Nluc co-infiltrated with GFP or MHZ3-GFP on the two sides of the same leaf.

Assay [2] addresses T2, Cluc-OsETR2 (rice (Oryza sativa L.)) (UniProt Q7XX84).
T2 sequence: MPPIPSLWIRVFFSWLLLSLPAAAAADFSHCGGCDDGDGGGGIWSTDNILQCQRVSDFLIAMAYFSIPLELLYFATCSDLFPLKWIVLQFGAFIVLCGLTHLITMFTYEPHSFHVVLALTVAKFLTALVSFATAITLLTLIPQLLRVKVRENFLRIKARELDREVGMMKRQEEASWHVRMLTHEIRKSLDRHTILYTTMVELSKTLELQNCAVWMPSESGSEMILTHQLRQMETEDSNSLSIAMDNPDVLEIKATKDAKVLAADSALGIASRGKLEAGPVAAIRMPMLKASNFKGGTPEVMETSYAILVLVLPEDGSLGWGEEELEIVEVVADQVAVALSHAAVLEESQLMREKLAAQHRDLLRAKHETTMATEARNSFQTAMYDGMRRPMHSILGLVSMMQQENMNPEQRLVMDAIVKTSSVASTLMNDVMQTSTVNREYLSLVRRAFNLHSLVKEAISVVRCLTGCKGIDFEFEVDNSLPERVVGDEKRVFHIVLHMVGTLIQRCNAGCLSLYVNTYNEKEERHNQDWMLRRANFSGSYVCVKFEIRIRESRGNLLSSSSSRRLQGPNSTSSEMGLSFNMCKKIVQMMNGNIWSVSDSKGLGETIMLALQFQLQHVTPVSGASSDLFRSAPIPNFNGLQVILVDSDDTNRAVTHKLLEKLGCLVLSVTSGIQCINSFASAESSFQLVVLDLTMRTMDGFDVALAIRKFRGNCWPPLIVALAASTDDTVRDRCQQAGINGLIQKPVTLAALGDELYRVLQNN
The assay is described as above.

Assay [3] deals with MHZ3-Cub (rice (Oryza sativa L.)). In words: two-hybrid; split-ubiquitin membrane yeast two-hybrid (MbYTH), yeast NMY51; bait MHZ3-Cub, preys NubG fusions; growth on SD-Trp-Leu-His after 5 days at 30 °C.
Assay [4] has as its target MHZ3-GFP (rice (Oryza sativa L.)). In words: co-IP; rice protoplasts (Osetr2 mhz3 or Osers2 mhz3) co-transfected, 16 h at 28 °C in the dark; IP buffer 50 mM HEPES pH 7.5, 150 mM NaCl, 0.5 mM EDTA, 0.5% NP-40; GFP-Trap_A beads 1 h at 4 °C; blots anti-GFP, anti-c-Myc, anti-FLAG.
Assay [5] addresses MHZ3-Nluc (rice (Oryza sativa L.)). In words: split reporter; luciferase complementation imaging (LCI) in N. benthamiana leaves, Cluc and Nluc fusions co-infiltrated; also with or without 2 h of 10 μL/L ethylene after 48 h at 22 °C.

No constants are given. Whether binding was seen depends on the method and setting. Binding calls can cover weak binding; strength is not graded here. For some assays here: In cells and extracts the contact can be indirect. For some assays here: Where a sequence is shown, tags or fusion partners need not be part of it.

As to “OsCTR2-Nluc (rice (Oryza sativa L.)) (enzyme)”, the binding entry in assay [1] and in assay [2] was “binds” throughout.

B1: NubG-OsERS2 (receptor, UniProt Q0DKM0 1-635)
chain: MDGSCDCIEPLWQADDLLVKYQYISDFFIALAYFSIPLELIYFVKKSAFFPYRWVLIQFGAFIVLCGATHLINLWTFAIYTKTIAVVLTVAKAATAVVSCITALMLVHIIPDLLNVKLRERFLKDKADELDREMGIIRTQEETGRHVHMLTHEIRSTLDRHTILRTTLVELGRTLVLAECALWMPTRSGSALQLSHTIYNSAAIGSVVPINLPIVSKVFNSNRVVKIPHTSPLASITADKSRYVPPEVVAIRVPLLHLTNFQINDWPELSAKSFAVMVLMLPPDSAREWRPHERELVEVVADQVAVALSHAAILEESMRARDLLMEQNIALDAARREAEMAICARNDFLAVMNHEMRTPMRAIVSLSSLLLETNLSAEQRLMVETILKSSDLLATLTNDVLDVSKLENGSLELEIAPFNLHSTFTDVVNLIKPVAACKRLSVMVTLAPELPLHAIGDQKRLMQIILNVAGNSIKFTKEGHVSITASMARPDALRGPHEPDYHPVVSDGFFYLAVQVKDTGCGISPQDMPHTFRKFAHPENAGKWNSGSGLGLALSRRFVSLMEGNIWLESEGVGKGCTAMFFVKLGMPEKPNANLRRMAPHPLQPNQGAGGPDALSISIMDSNPRVPRVRYQSSV
For the molecule B1, in assay [3], the binding entry is recorded as “binds”.

B2: OsERS2-Myc (receptor, UniProt Q0DKM0 1-635)
chain: MDGSCDCIEPLWQADDLLVKYQYISDFFIALAYFSIPLELIYFVKKSAFFPYRWVLIQFGAFIVLCGATHLINLWTFAIYTKTIAVVLTVAKAATAVVSCITALMLVHIIPDLLNVKLRERFLKDKADELDREMGIIRTQEETGRHVHMLTHEIRSTLDRHTILRTTLVELGRTLVLAECALWMPTRSGSALQLSHTIYNSAAIGSVVPINLPIVSKVFNSNRVVKIPHTSPLASITADKSRYVPPEVVAIRVPLLHLTNFQINDWPELSAKSFAVMVLMLPPDSAREWRPHERELVEVVADQVAVALSHAAILEESMRARDLLMEQNIALDAARREAEMAICARNDFLAVMNHEMRTPMRAIVSLSSLLLETNLSAEQRLMVETILKSSDLLATLTNDVLDVSKLENGSLELEIAPFNLHSTFTDVVNLIKPVAACKRLSVMVTLAPELPLHAIGDQKRLMQIILNVAGNSIKFTKEGHVSITASMARPDALRGPHEPDYHPVVSDGFFYLAVQVKDTGCGISPQDMPHTFRKFAHPENAGKWNSGSGLGLALSRRFVSLMEGNIWLESEGVGKGCTAMFFVKLGMPEKPNANLRRMAPHPLQPNQGAGGPDALSISIMDSNPRVPRVRYQSSV
Regarding B2, the binding entry in assay [4] is “binds”.

B3: Cluc-OsERS2 (receptor, UniProt Q0DKM0 1-635)
chain: MDGSCDCIEPLWQADDLLVKYQYISDFFIALAYFSIPLELIYFVKKSAFFPYRWVLIQFGAFIVLCGATHLINLWTFAIYTKTIAVVLTVAKAATAVVSCITALMLVHIIPDLLNVKLRERFLKDKADELDREMGIIRTQEETGRHVHMLTHEIRSTLDRHTILRTTLVELGRTLVLAECALWMPTRSGSALQLSHTIYNSAAIGSVVPINLPIVSKVFNSNRVVKIPHTSPLASITADKSRYVPPEVVAIRVPLLHLTNFQINDWPELSAKSFAVMVLMLPPDSAREWRPHERELVEVVADQVAVALSHAAILEESMRARDLLMEQNIALDAARREAEMAICARNDFLAVMNHEMRTPMRAIVSLSSLLLETNLSAEQRLMVETILKSSDLLATLTNDVLDVSKLENGSLELEIAPFNLHSTFTDVVNLIKPVAACKRLSVMVTLAPELPLHAIGDQKRLMQIILNVAGNSIKFTKEGHVSITASMARPDALRGPHEPDYHPVVSDGFFYLAVQVKDTGCGISPQDMPHTFRKFAHPENAGKWNSGSGLGLALSRRFVSLMEGNIWLESEGVGKGCTAMFFVKLGMPEKPNANLRRMAPHPLQPNQGAGGPDALSISIMDSNPRVPRVRYQSSV
In the case of B3, in assay [5], the binding result is given as “binds”.

B4: NubG-OsETR2 (receptor, UniProt Q7XX84 1-763)
chain: MPPIPSLWIRVFFSWLLLSLPAAAAADFSHCGGCDDGDGGGGIWSTDNILQCQRVSDFLIAMAYFSIPLELLYFATCSDLFPLKWIVLQFGAFIVLCGLTHLITMFTYEPHSFHVVLALTVAKFLTALVSFATAITLLTLIPQLLRVKVRENFLRIKARELDREVGMMKRQEEASWHVRMLTHEIRKSLDRHTILYTTMVELSKTLELQNCAVWMPSESGSEMILTHQLRQMETEDSNSLSIAMDNPDVLEIKATKDAKVLAADSALGIASRGKLEAGPVAAIRMPMLKASNFKGGTPEVMETSYAILVLVLPEDGSLGWGEEELEIVEVVADQVAVALSHAAVLEESQLMREKLAAQHRDLLRAKHETTMATEARNSFQTAMYDGMRRPMHSILGLVSMMQQENMNPEQRLVMDAIVKTSSVASTLMNDVMQTSTVNREYLSLVRRAFNLHSLVKEAISVVRCLTGCKGIDFEFEVDNSLPERVVGDEKRVFHIVLHMVGTLIQRCNAGCLSLYVNTYNEKEERHNQDWMLRRANFSGSYVCVKFEIRIRESRGNLLSSSSSRRLQGPNSTSSEMGLSFNMCKKIVQMMNGNIWSVSDSKGLGETIMLALQFQLQHVTPVSGASSDLFRSAPIPNFNGLQVILVDSDDTNRAVTHKLLEKLGCLVLSVTSGIQCINSFASAESSFQLVVLDLTMRTMDGFDVALAIRKFRGNCWPPLIVALAASTDDTVRDRCQQAGINGLIQKPVTLAALGDELYRVLQNN
For the molecule B4, in assay [3], the binding entry is on record as “binds”.

B5: OsETR2-Myc (receptor, UniProt Q7XX84 1-763)
chain: MPPIPSLWIRVFFSWLLLSLPAAAAADFSHCGGCDDGDGGGGIWSTDNILQCQRVSDFLIAMAYFSIPLELLYFATCSDLFPLKWIVLQFGAFIVLCGLTHLITMFTYEPHSFHVVLALTVAKFLTALVSFATAITLLTLIPQLLRVKVRENFLRIKARELDREVGMMKRQEEASWHVRMLTHEIRKSLDRHTILYTTMVELSKTLELQNCAVWMPSESGSEMILTHQLRQMETEDSNSLSIAMDNPDVLEIKATKDAKVLAADSALGIASRGKLEAGPVAAIRMPMLKASNFKGGTPEVMETSYAILVLVLPEDGSLGWGEEELEIVEVVADQVAVALSHAAVLEESQLMREKLAAQHRDLLRAKHETTMATEARNSFQTAMYDGMRRPMHSILGLVSMMQQENMNPEQRLVMDAIVKTSSVASTLMNDVMQTSTVNREYLSLVRRAFNLHSLVKEAISVVRCLTGCKGIDFEFEVDNSLPERVVGDEKRVFHIVLHMVGTLIQRCNAGCLSLYVNTYNEKEERHNQDWMLRRANFSGSYVCVKFEIRIRESRGNLLSSSSSRRLQGPNSTSSEMGLSFNMCKKIVQMMNGNIWSVSDSKGLGETIMLALQFQLQHVTPVSGASSDLFRSAPIPNFNGLQVILVDSDDTNRAVTHKLLEKLGCLVLSVTSGIQCINSFASAESSFQLVVLDLTMRTMDGFDVALAIRKFRGNCWPPLIVALAASTDDTVRDRCQQAGINGLIQKPVTLAALGDELYRVLQNN
Regarding B5, the binding result in assay [4] is “binds”.

B6: Cluc-OsETR2 (receptor, UniProt Q7XX84 1-763)
chain: MPPIPSLWIRVFFSWLLLSLPAAAAADFSHCGGCDDGDGGGGIWSTDNILQCQRVSDFLIAMAYFSIPLELLYFATCSDLFPLKWIVLQFGAFIVLCGLTHLITMFTYEPHSFHVVLALTVAKFLTALVSFATAITLLTLIPQLLRVKVRENFLRIKARELDREVGMMKRQEEASWHVRMLTHEIRKSLDRHTILYTTMVELSKTLELQNCAVWMPSESGSEMILTHQLRQMETEDSNSLSIAMDNPDVLEIKATKDAKVLAADSALGIASRGKLEAGPVAAIRMPMLKASNFKGGTPEVMETSYAILVLVLPEDGSLGWGEEELEIVEVVADQVAVALSHAAVLEESQLMREKLAAQHRDLLRAKHETTMATEARNSFQTAMYDGMRRPMHSILGLVSMMQQENMNPEQRLVMDAIVKTSSVASTLMNDVMQTSTVNREYLSLVRRAFNLHSLVKEAISVVRCLTGCKGIDFEFEVDNSLPERVVGDEKRVFHIVLHMVGTLIQRCNAGCLSLYVNTYNEKEERHNQDWMLRRANFSGSYVCVKFEIRIRESRGNLLSSSSSRRLQGPNSTSSEMGLSFNMCKKIVQMMNGNIWSVSDSKGLGETIMLALQFQLQHVTPVSGASSDLFRSAPIPNFNGLQVILVDSDDTNRAVTHKLLEKLGCLVLSVTSGIQCINSFASAESSFQLVVLDLTMRTMDGFDVALAIRKFRGNCWPPLIVALAASTDDTVRDRCQQAGINGLIQKPVTLAALGDELYRVLQNN
On to B6, for which, in assay [5], the binding result is “binds”.
